A short description of this data set: peptide synthesis. The note with it: coupling step, HCl salt.

Turning to Boc-Tyr-D-Thr-Gly-Phe-Δ^3 Pro-NH2, the step yield came to 53.2%.

(Values after US4238390A (Hoffmann-La Roche Inc., priority 1979, dated 1980).)
